Laboratory results: publication doi:10.1101/2021.09.02.458712
These are yes or no findings as the source states them, for the method shown. Binding seen in cells or lysates may run through a third protein. Tags and fused reporters may be left off the sequences shown.

Sequences of proteins named here, by UniProt entry; tags and fusion partners are left off.
UniProt Q86UU1: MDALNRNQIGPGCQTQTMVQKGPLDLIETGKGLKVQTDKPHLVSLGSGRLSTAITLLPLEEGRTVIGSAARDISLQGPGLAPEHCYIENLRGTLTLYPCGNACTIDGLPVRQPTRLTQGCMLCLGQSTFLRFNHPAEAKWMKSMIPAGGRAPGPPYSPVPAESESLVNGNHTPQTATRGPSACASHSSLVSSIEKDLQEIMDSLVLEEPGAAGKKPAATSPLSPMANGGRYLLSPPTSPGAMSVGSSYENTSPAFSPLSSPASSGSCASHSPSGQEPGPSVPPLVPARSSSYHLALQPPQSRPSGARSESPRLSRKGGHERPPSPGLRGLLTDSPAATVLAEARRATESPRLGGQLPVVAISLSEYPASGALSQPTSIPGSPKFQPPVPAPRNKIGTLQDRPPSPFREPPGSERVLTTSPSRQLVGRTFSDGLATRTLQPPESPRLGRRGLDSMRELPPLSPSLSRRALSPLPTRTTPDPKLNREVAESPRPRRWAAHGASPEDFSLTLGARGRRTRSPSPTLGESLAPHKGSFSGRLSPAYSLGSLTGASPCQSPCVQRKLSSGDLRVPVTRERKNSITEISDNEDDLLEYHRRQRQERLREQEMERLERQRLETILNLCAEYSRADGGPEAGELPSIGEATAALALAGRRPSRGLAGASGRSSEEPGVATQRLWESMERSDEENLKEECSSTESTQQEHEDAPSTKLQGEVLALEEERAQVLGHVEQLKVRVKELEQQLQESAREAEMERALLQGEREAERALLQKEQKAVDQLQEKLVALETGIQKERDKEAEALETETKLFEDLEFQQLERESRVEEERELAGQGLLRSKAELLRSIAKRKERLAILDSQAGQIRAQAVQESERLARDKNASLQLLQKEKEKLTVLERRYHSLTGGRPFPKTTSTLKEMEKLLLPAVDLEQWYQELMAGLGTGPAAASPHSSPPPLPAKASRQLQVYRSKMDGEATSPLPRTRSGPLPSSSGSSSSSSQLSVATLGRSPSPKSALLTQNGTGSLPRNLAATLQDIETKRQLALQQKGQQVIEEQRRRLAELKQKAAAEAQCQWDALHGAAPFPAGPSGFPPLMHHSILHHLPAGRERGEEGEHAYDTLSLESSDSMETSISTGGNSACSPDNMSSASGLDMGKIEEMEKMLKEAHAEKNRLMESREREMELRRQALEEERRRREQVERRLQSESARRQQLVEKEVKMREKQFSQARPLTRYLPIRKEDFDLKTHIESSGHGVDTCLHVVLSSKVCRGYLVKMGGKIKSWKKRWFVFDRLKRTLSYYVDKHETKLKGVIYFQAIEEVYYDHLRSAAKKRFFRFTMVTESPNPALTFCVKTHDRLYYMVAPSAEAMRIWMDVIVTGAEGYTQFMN

Molecular target: T1, FLAG-PRICKLE1 (UniProt Q96MT3)
T1 sequence: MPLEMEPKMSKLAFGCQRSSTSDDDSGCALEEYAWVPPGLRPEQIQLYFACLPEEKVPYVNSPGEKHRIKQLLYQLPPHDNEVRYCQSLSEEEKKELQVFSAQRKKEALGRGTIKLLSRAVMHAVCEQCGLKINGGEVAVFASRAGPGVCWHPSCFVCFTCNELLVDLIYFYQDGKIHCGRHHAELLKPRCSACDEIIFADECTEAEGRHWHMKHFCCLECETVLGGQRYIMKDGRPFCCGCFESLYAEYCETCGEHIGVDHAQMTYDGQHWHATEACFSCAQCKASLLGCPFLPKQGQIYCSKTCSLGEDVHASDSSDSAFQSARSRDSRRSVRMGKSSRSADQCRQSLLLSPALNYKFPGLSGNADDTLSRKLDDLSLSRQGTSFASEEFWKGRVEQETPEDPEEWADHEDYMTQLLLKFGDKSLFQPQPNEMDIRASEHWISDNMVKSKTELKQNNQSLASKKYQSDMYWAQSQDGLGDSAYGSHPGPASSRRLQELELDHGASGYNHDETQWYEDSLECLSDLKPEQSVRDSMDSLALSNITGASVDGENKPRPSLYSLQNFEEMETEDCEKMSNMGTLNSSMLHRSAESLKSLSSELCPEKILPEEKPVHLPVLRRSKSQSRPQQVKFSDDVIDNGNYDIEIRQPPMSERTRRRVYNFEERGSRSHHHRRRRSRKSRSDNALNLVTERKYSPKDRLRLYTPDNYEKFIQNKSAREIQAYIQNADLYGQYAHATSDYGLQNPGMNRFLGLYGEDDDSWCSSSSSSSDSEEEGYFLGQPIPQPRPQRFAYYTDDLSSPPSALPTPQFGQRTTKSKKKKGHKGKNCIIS
Experiment: co-IP

Substance: GFP-LL5α (from UniProt Q86UU1 1-1377)
- binding: no binding
